{"sequences": {"note": "The chains behind the UniProt entries cited, without tags or fusion partners.", "UniProt O94874": "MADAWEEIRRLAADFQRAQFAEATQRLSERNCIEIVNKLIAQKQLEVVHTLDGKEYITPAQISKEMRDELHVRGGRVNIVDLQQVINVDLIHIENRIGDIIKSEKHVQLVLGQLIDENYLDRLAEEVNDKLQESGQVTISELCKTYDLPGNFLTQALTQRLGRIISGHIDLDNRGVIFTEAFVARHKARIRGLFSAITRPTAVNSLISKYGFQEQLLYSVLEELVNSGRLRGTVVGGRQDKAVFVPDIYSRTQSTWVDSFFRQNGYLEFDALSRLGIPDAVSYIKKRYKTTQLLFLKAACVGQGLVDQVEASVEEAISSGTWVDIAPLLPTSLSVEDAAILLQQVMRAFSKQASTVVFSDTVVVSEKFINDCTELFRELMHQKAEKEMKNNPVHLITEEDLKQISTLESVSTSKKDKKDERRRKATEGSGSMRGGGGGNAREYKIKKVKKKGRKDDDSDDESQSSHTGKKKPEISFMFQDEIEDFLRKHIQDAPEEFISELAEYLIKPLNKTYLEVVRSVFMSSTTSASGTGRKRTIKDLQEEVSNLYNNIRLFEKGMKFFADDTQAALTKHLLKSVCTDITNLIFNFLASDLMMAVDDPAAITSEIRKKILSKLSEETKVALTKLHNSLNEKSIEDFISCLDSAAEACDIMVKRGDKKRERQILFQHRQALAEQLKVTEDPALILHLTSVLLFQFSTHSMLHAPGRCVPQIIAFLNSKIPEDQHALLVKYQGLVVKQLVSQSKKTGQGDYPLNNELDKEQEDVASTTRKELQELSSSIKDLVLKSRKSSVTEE"}, "source": "paper doi:10.1101/846477", "binders": {"B1": {"name": "UFSP2 (enzyme, UniProt Q9NUQ7 1-469)", "chain": "MVISESMDILFRIRGGLDLAFQLATPNEIFLKKALKHVLSDLSTKLSSNALVFRICHSSVYIWPSSDINTIPGELTDASACKNILRFIQFEPEEDIKRKFMRKKDKKLSDMHQIVNIDLMLEMSTSLAAVTPIIERESGGHHYVNMTLPVDAVISVAPEETWGKVRKLLVDAIHNQLTDMEKCILKYMKGTSIVVPEPLHFLLPGKKNLVTISYPSGIPDGQLQAYRKELHDLFNLPHDRPYFKRSNAYHFPDEPYKDGYIRNPHTYLNPPNMETGMIYVVQGIYGYHHYMQDRIDDNGWGCAYRSLQTICSWFKHQGYTERSIPTHREIQQALVDAGDKPATFVGSRQWIGSIEVQLVLNQLIGITSKILFVSQGSEIASQGRELANHFQSEGTPVMIGGGVLAHTILGVAWNEITGQIKFLILDPHYTGAEDLQVILEKGWCGWKGPDFWNKDAYYNLCLPQRPNMI"}}, "key": {"BirA-UFL1 [1]": {"biological_target": "BirA-UFL1 (UniProt O94874)", "test": "proximity labelling"}, "BirA-UFL1 [2]": {"biological_target": "BirA-UFL1 (UniProt O94874)", "test": "proximity labelling", "remark": "listed apart in the source"}}, "note": "Where two headings read alike, the source gives them in different places. These are yes or no findings as the source states them, for the method shown. Binding seen in cells or lysates may run through a third protein. These calls come from enrichment with a bait or labelling near it, and not all partners need be listed."}
{"binder": "B1", "values": [{"measurement": "binding", "setting": "BirA-UFL1 [1]", "value": "binds"}, {"measurement": "binding", "setting": "BirA-UFL1 [2]", "value": "binds"}]}
